Values quoted from earlier work, collected in patent US12303591B2, “Tumescent infiltration drug delivery of high subcutaneous drug concentrations with prolonged local and systemic effects and minimal local or systemic toxicity” (priority 2015, dated 2025).
Some results were stated once for a whole list of compounds, not compound by compound.

Details: mixed together in a saline solution for IV delivery; 8° C.; cited from earlier work

Row | Compound | chemically stable (time)
1 | Cc1nnc(SCC2=C(C(=O)O)N3C(=O)[C@@H](NC(=O)Cn4cnnn4)[C@H]3SC2)s1 [Cefazolin] | at least 72 hours
2 | Cc1ncc([N+](=O)[O-])n1CCO [Metronidazole] | at least 72 hours
